In publication doi:10.1101/2020.10.02.323600:
These are yes or no findings as the source states them, for the method shown. Binding calls can cover weak binding; strength is not graded here. Where a sequence is shown, tags or fusion partners need not be part of it.

What was measured:
[1] = target: GST/PfAtg18syn (Plasmodium falciparum) (UniProt Q8IJR6); assay: ELISA
[2] = target: GST/PfAtg18syn (Plasmodium falciparum) (UniProt Q8IJR6); assay: far-Western, overlay or dot blot

Binder | binding [1] | binding [2]
GST/MDRCD (domain or fragment, UniProt Q7K6A5 1054-1419) KRGTILVDDFMKSLFTFIFTGSYAGKLMSLKGDSENAKLSFEKYYPLMIRKSNIDVRDDGGIRINKNLIKGKVDIKDVNFRYISRPNVPIYKNLSFTCDSKKTTAIVGETGSGKSTFMNLLLRFYDLKNDHIILKNDMTNFQDYQNNNNNSLVLKNVNEFSNQSGSAEDYTVFNNNGEILLDDINICDYNLRDLRNLFSIVSQEPMLFNMSIYENIKFGREDATLEDVKRVSKFAAIDEFIESLPNKYDTNVGPYGKSLSGGQKQRIAIARALLREPKILLLDEATSSLDSNSEKLIEKTIVDIKDKADKTIITIAHRIASIKRSDKIVVFNNPDRNGTFVQSHGTHDELLSAQDGIYKKYVKLAK | binds | binds
GST/MDRID (domain or fragment, UniProt Q7K6A5 341-788) TEYMKALEATNSLYEIINRKPLVENNDDGETLPNIKKIEFKNVRFHYDTRKDVEIYKDLSFTLKEGKTYAFVGESGCGKSTILKLIERLYDPTEGDIIVNDSHNLKDINLKWWRSKIGVVSQDPLLFSNSIKNNIKYSLYSLKDLEAMENYYEENTNDTYENKNFSLISNSMTSNELLEMKKEYQTIKDSDVVDVSKKVLIHDFVSSLPDKYDTLVGSNASKLSGGQKQRISIARAIMRNPKILILDEATSSLDNKSEYLVQKTINNLKGNENRITIIIAHRLSTIRYANTIFVLSNRERSDNNNNNNNDDNNNNNNNNNNKINNEGSYIIEQGTHDSLMKNKNGIYHLMINNQKISSNKSSNNGNDNGSDNKSSAYKDSDTGNDADNMNSLSIHENENISNNRNCKNTAENEKEEKVPFFKRMFRRKKKAPNNLRIIYKEIFSYKKD |  | no binding (tested: 2.5 µg/ml)
